Here are results for five molecules from publication PMC12579238.

Results are given in words; binding and its absence hold for the method and conditions named. Binding seen in cells or lysates may run through a third protein. A yes stands for co-enrichment or nearness to the bait. Other partners may have been found.

For the experiment, the target named is T1, CLN7 (human (endogenous in SH-SY5Y)) (UniProt Q8NHS3).
T1 sequence: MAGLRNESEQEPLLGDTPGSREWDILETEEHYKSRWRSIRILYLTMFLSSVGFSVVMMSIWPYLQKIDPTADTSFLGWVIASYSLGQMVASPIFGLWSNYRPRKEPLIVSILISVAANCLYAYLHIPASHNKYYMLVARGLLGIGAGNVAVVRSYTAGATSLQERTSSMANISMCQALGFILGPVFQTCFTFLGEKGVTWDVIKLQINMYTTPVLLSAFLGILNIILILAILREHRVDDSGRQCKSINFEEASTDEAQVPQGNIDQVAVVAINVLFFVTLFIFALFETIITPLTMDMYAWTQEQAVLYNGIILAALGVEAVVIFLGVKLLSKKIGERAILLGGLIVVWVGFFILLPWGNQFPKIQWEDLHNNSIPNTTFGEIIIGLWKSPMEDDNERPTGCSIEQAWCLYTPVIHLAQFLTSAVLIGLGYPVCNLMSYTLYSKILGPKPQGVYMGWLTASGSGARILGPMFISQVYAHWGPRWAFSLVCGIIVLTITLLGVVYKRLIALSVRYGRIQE
As to the kind of experiment: affinity purification with mass spectrometry; endogenous CLN7 immunoprecipitated from 2.5 mg SH-SY5Y lysate with a polyclonal anti-CLN7 antibody raised against L9 (351-421aa, Proteintech) on G-sepharose beads; IgG as non-specific binding control; 4 independent replicates; cells under steady state culture conditions.

B1: RAE1 (protein, UniProt P78406 1-368)
chain: MSLFGTTSGFGTSGTSMFGSATTDNHNPMKDIEVTSSPDDSIGCLSFSPPTLPGNFLIAGSWANDVRCWEVQDSGQTIPKAQQMHTGPVLDVCWSDDGSKVFTASCDKTAKMWDLSSNQAIQIAQHDAPVKTIHWIKAPNYSCVMTGSWDKTLKFWDTRSSNPMMVLQLPERCYCADVIYPMAVVATAERGLIVYQLENQPSEFRRIESPLKHQHRCVAIFKDKQNKPTGFALGSIEGRVAIHYINPPNPAKDNFTFKCHRSNGTNTSAPQDIYAVNGIAFHPVHGTLATVGSDGRFSFWDKDARTKLKTSEQLDQPISACCFNHNGNIFAYASSYDWSKGHEFYNPQKKNYIFLRNAAEELKPRNKK
Take B1: the binding result is given as “binds”.

B2: RALGAPB (protein, UniProt Q86X10 1-1494)
chain: MYSEWRSLHLVIQNDQGHTSVLHSYPESVGREVANAVVRPLGQVLGTPSVAGSENLLKTDKEVKWTMEVICYGLTLPLDGETVKYCVDVYTDWIMALVLPKDSIPLPVIKEPNQYVQTILKHLQNLFVPRQEQGSSQIRLCLQVLRAIQKLARESSLMARETWEVLLLFLLQINDILLAPPTVQGGIAENLAEKLIGVLFEVWLLACTRCFPTPPYWKTAKEMVANWRHHPAVVEQWSKVICALTSRLLRFTYGPSFPAFKVPDEDASLIPPEMDNECVAQTWFRFLHMLSNPVDLSNPAIISSTPKFQEQFLNVSGMPQELNQYPCLKHLPQIFFRAMRGISCLVDAFLGISRPRSDSAPPTPVNRLSMPQSAAVSTTPPHNRRHRAVTVNKATMKTSTVSTAHASKVQHQTSSTSPLSSPNQTSSEPRPLPAPRRPKVNSILNLFGSWLFDAAFVHCKLHNGINRDSSMTAITTQASMEFRRKGSQMSTDTMVSNPMFDASEFPDNYEAGRAEACGTLCRIFCSKKTGEEILPAYLSRFYMLLIQGLQINDYVCHPVLASVILNSPPLFCCDLKGIDVVVPYFISALETILPDRELSKFKSYVNPTELRRSSINILLSLLPLPHHFGTVKSEVVLEGKFSNDDSSSYDKPITFLSLKLRLVNILIGALQTETDPNNTQMILGAMLNIVQDSALLEAIGCQMEMGGGENNLKSHSRTNSGISSASGGSTEPTTPDSERPAQALLRDYALNTDSAAGLLIRSIHLVTQRLNSQWRQDMSISLAALELLSGLAKVKVMVDSGDRKRAISSVCTYIVYQCSRPAPLHSRDLHSMIVAAFQCLCVWLTEHPDMLDEKDCLKEVLEIVELGISGSKSKNNEQEVKYKGDKEPNPASMRVKDAAEATLTCIMQLLGAFPSPSGPASPCSLVNETTLIKYSRLPTINKHSFRYFVLDNSVILAMLEQPLGNEQNDFFPSVTVLVRGMSGRLAWAQQLCLLPRGAKANQKLFVPEPRPVPKNDVGFKYSVKHRPFPEEVDKIPFVKADLSIPDLHEIVTEELEERHEKLRSGMAQQIAYEIHLEQQSEEELQKRSFPDPVTDCKPPPPAQEFQTARLFLSHFGFLSLEALKEPANSRLPPHLIALDSTIPGFFDDIGYLDLLPCRPFDTVFIFYMKPGQKTNQEILKNVESSRTVQPHFLEFLLSLGWSVDVGRHPGWTGHVSTSWSINCCDDGEGSQQEVISSEDIGASIFNGQKKVLYYADALTEIAFVVPSPVESLTDSLESNISDQDSDSNMDLMPGILKQPSLTLELFPNHTDNLNSSQRLSPSSRMRKLPQGRPVPPLGPETRVSVVWVERYDDIENFPLSELMTEISTGVETTANSSTSLRSTTLEKEVPVIFIHPLNTGLFRIKIQGATGKFNMVIPLVDGMIVSRRALGFLVRQTVINICRRKRLESDSYSPPHVRRKQKITDIVNKYRNKQLEPEFYTSLFQEVGLKNCSS
As for B2, the binding entry is reported as “binds”.

B3: ATXN2L (protein, UniProt Q8WWM7 1-1075)
chain: MLKPQPLQQPSQPQQPPPTQQAVARRPPGGTSPPNGGLPGPLATSAAPPGPPAAASPCLGPVAAAGSGLRRGAEGILAPQPPPPQQHQERPGAAAIGSARGQSTGKGPPQSPVFEGVYNNSRMLHFLTAVVGSTCDVKVKNGTTYEGIFKTLSSKFELAVDAVHRKASEPAGGPRREDIVDTMVFKPSDVMLVHFRNVDFNYATKDKFTDSAIAMNSKVNGEHKEKVLQRWEGGDSNSDDYDLESDMSNGWDPNEMFKFNEENYGVKTTYDSSLSSYTVPLEKDNSEEFRQRELRAAQLAREIESSPQYRLRIAMENDDGRTEEEKHSAVQRQGSGRESPSLASREGKYIPLPQRVREGPRGGVRCSSSRGGRPGLSSLPPRGPHHLDNSSPGPGSEARGINGGPSRMSPKAQRPLRGAKTLSSPSNRPSGETSVPPPPAVGRMYPPRSPKSAAPAPISASCPEPPIGSAVPTSSASIPVTSSVSDPGVGSISPASPKISLAPTDVKELSTKEPGRTLEPQELARIAGKVPGLQNEQKRFQLEELRKFGAQFKLQPSSSPENSLDPFPPRILKEEPKGKEKEVDGLLTSEPMGSPVSSKTESVSDKEDKPPLAPSGGTEGPEQPPPPCPSQTGSPPVGLIKGEDKDEGPVAEQVKKSTLNPNAKEFNPTKPLLSVNKSTSTPTSPGPRTHSTPSIPVLTAGQSGLYSPQYISYIPQIHMGPAVQAPQMYPYPVSNSVPGQQGKYRGAKGSLPPQRSDQHQPASAPPMMQAAAAAGPPLVAATPYSSYIPYNPQQFPGQPAMMQPMAHYPSQPVFAPMLQSNPRMLTSGSHPQAIVSSSTPQYPSAEQPTPQALYATVHQSYPHHATQLHAHQPQPATTPTGSQPQSQHAAPSPVQHQAGQAPHLGSGQPQQNLYHPGALTGTPPSLPPGPSAQSPQSSFPQPAAVYAIHHQQLPHGFTNMAHVTQAHVQTGITAAPPPHPGAPHPPQVMLLHPPQSHGGPPQGAVPQSGVPALSASTPSPYPYIGHPQGEQPGQAPGFPGGADDRIREFSLAGGIWHGRAEGLQVGQDARVLGGE
On to B3, for which the binding result was “binds”.

B4: RBM20 (protein, UniProt Q5T481 1-1227)
chain: MVLAAAMSQDADPSGPEQPDRVACSVPGARASPAPSGPRGMQQPPPPPQPPPPPQAGLPQIIQNAAKLLDKNPFSVSNPNPLLPSPASLQLAQLQAQLTLHRLKLAQTAVTNNTAAATVLNQVLSKVAMSQPLFNQLRHPSVITGPHGHAGVPQHAAAIPSTRFPSNAIAFSPPSQTRGPGPSMNLPNQPPSAMVMHPFTGVMPQTPGQPAVILGIGKTGPAPATAGFYEYGKASSGQTYGPETDGQPGFLPSSASTSGSVTYEGHYSHTGQDGQAAFSKDFYGPNSQGSHVASGFPAEQAGGLKSEVGPLLQGTNSQWESPHGFSGQSKPDLTAGPMWPPPHNQPYELYDPEEPTSDRTPPSFGGRLNNSKQGFIGAGRRAKEDQALLSVRPLQAHELNDFHGVAPLHLPHICSICDKKVFDLKDWELHVKGKLHAQKCLVFSENAGIRCILGSAEGTLCASPNSTAVYNPAGNEDYASNLGTSYVPIPARSFTQSSPTFPLASVGTTFAQRKGAGRVVHICNLPEGSCTENDVINLGLPFGKVTNYILMKSTNQAFLEMAYTEAAQAMVQYYQEKSAVINGEKLLIRMSKRYKELQLKKPGKAVAAIIQDIHSQRERDMFREADRYGPERPRSRSPVSRSLSPRSHTPSFTSCSSSHSPPGPSRADWGNGRDSWEHSPYARREEERDPAPWRDNGDDKRDRMDPWAHDRKHHPRQLDKAELDERPEGGRPHREKYPRSGSPNLPHSVSSYKSREDGYYRKEPKAKSDKYLKQQQDAPGRSRRKDEARLRESRHPHPDDSGKEDGLGPKVTRAPEGAKAKQNEKNKTKRTDRDQEGADDRKENTMAENEAGKEEQEGMEESPQSVGRQEKEAEFSDPENTRTKKEQDWESESEAEGESWYPTNMEELVTVDEVGEEEDFIVEPDIPELEEIVPIDQKDKICPETCLCVTTTLDLDLAQDFPKEGVKAVGNGAAEISLKSPRELPSASTSCPSDMDVEMPGLNLDAERKPAESETGLSLEDSDCYEKEAKGVESSDVHPAPTVQQMSSPKPAEERARQPSPFVDDCKTRGTPEDGACEGSPLEEKASPPIETDLQNQACQEVLTPENSRYVEMKSLEVRSPEYTEVELKQPLSLPSWEPEDVFSELSIPLGVEFVVPRTGFYCKLCGLFYTSEETAKMSHCRSAVHYRNLQKYLSQLAEEGLKETEGADSPRPEDSGIVPRFERKKL
As to B4, the binding result is “binds”.

B5: RBM28 (protein, UniProt Q9NW13 1-759)
chain: MAGLTLFVGRLPPSARSEQLEELFSQVGPVKQCFVVTEKGSKACRGFGYVTFSMLEDVQRALKEITTFEGCKINVTVAKKKLRNKTKEKGKNENSECPKKEPKAKKAKVADKKARLIIRNLSFKCSEDDLKTVFAQFGAVLEVNIPRKPDGKMRGFGFVQFKNLLEAGKALKGMNMKEIKGRTVAVDWAVAKDKYKDTQSVSAIGEEKSHESKHQESVKKKGREEEDMEEEENDDDDDDDDEEDGVFDDEDEEEENIESKVTKPVQIQKRAVKRPAPAKSSDHSEEDSDLEESDSIDDGEELAQSDTSTEEQEDKAVQVSNKKKRKLPSDVNEGKTVFIRNLSFDSEEEELGELLQQFGELKYVRIVLHPDTEHSKGCAFAQFMTQEAAQKCLLAASPENEAGGLKLDGRQLKVDLAVTRDEAAKLQTTKVKKPTGTRNLYLAREGLIRAGTKAAEGVSAADMAKRERFELLKHQKLKDQNIFVSRTRLCLHNLPKAVDDKQLRKLLLSATSGEKGVRIKECRVMRDLKGVHGNMKGQSLGYAFAEFQEHEHALKALRLINNNPEIFGPLKRPIVEFSLEDRRKLKMKELRIQRSLQKMRSKPATGEPQKGQPEPAKDQQQKAAQHHTEEQSKVPPEQKRKAGSTSWTGFQTKAEVEQVELPDGKKRRKVLALPSHRGPKIRLRDKGKVKPVHPKKPKPQINQWKQEKQQLSSEQVSRKKAKGNKTETRFNQLVEQYKQKLLGPSKGAPLAKRSKWFDS
B5: the binding entry is “binds”.
